Cell number change and AC50 data for 61 compounds are collected here from PubChem BioAssay AID2685 (National Center for Advancing Translational Sciences (NCATS), 2010).

The assay in a line: qHTS Assay for Lipid Storage Modulators in Drosophila S3 Cells.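 As to Cell number change: cells counted by Cell Tracker Red CMTPX staining in the red channel.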 Conditions: BODIPY lipid droplet fluorescence, 18-24 h; for cell number change: measured here: cell count max response, cells fed with added oleic acid. In short, it runs like this:
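Laser-scanning cytometry quantifies lipid droplet accumulation (500–530 nm total intensity; droplet/cell object ratio) in oleic acid-fed (400 uM added) Drosophila S3 cells treated with a concentration series. 20 uM Triacsin C defined 100% inhibition.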

Where [1] appears, read: measured here: lipid fluorescence (Fed channel) AC50, cells fed with added oleic acid.
Where [2] appears, read: measured here: cell number channel AC50, cells fed with added oleic acid.

Where “and” joins values, the source holds several entries; their conditions need not be identical. Identical values can stand only once. The list shows a part of the results. These are further read-outs of the screen, such as a control signal, another cell line or another target. No call is given for them. Most of these compounds were active or inconclusive in the main read-out, so they are no random draw. Words in brackets tell the shape of the fitted curve; partial curves, single points and poor fits give uncertain potencies.

Take `O=C(CSCc1cnn(-c2ccccc2)c1-n1cccc1)NCc1ccc2c(c1)OCO2`: the cell number change was 12.1%. Also, the AC50 (commonly the midpoint of the concentration-response curve, whichever way the signal moves) under setting [1] was 0.103 µM [rising, full curve, poor fit].
Regarding `O=C(c1cccc(F)c1)N1CCN(C2CCCCC2)CC1`, the cell number change is -52.6%. For the same compound, under setting [2], the half-maximal activity concentration (AC50) is 29.1 µM [falling, single point].
Regarding `COc1ccc(F)cc1S(=O)(=O)NCCN1CCOCC1`, the cell number change is -14.9%. The half-maximal activity concentration (AC50) under setting [1] is 6.51 µM [falling, single point].
`COc1ccc(S(=O)(=O)N(CC(=O)N2CCN(c3ccccc3OC)CC2)c2ccccc2)cc1`: the cell number change is -19.9%.
Consider `Cc1cccc(NC(=O)CCc2nc3sc4c(c3c(=O)[nH]2)CCCC4)c1`, for which the cell number change was -0.958%. Besides, the half-maximal activity concentration (AC50) under setting [1] was 2.59 µM [falling, full curve].
On to `O=C(CCn1cccc1)Nc1cccc(F)c1`, for which the cell number change was -10.7%. Further, the AC50 under setting [1] is 1.16 µM [falling, full curve, poor fit].
As to `N#C/C(=C\c1ccncc1)c1ccccn1`, the cell number change was 13.9%. Besides, the AC50 under setting [1] is 1.3 µM [rising, full curve].
Turning to `Cc1ccc2c(C)c(C(=O)N(Cc3ccccc3)C3CCS(=O)(=O)C3)oc2c1` (configuration not stated), the cell number change was -22.2%. Besides, the concentration at half-maximal activity (AC50) under setting [1] is 18.4 µM [falling, single point].
In the case of `CCOC(=O)c1oc2ccccc2c1CSc1nnc(-c2ccco2)o1`, the cell number change is -21.8%.
In the case of `O=C1c2cccc3c([N+](=O)[O-])ccc(c23)C(=O)N1c1ccccn1`, the cell number change was -91.2%. Under setting [1], the AC50 is 29.1 µM [falling, single point].
On to `Cn1c(NCc2cccs2)nc2ccccc21`, for which the cell number change was 11.7%. In addition, the AC50 under setting [1] was 0.82 µM [falling, full curve].
`c1ccc(CN2CCN(c3nc(-c4ccccc4)nc4ccccc34)CC2)cc1`: the cell number change worked out at 26.5%. For the same compound, the concentration at half-maximal activity (AC50) under setting [2] is 0.731 µM [rising, full curve, poor fit].
For the compound `O=C(CN1C(=O)C2C3C=CC(C3)C2C1=O)NCc1ccccc1` (configuration not stated), the cell number change is -25%. The AC50 under setting [1] is 25.9 µM [falling, single point].
As to `CCN1CCN(CCCNC(=O)c2cn(CCOC)c(=O)c3c2c2ccccc2n3C)CC1`, the cell number change is -82.3%. The AC50 under setting [2] was 29.1 µM [falling, single point].
For the compound `Cc1ccccc1C(=O)Nn1cnc2ccccc2c1=O`, the cell number change is -15.1%. Also, the AC50 under setting [1] is 16.4 µM [falling, single point].
`COc1cc(/C=N/NC(=O)c2cccnc2)ccc1OS(=O)(=O)c1cc(C)ccc1C`: the cell number change is 56.5%. Moreover, under setting [2], the AC50 is 20.6 µM [rising, single point].
As for `CCOC(=O)c1c(-c2ccccc2)oc2ccc(O)c(CN(C)C)c12`, the cell number change is -15.6%.
Regarding `NC(=O)c1cc([N+](=O)[O-])ccc1NCc1ccc(C(=O)O)cc1`, the cell number change worked out at 13.6%. For the same compound, under setting [2], the AC50 is 6.51 µM [falling, single point]. Also, the half-maximal activity concentration (AC50) under setting [1] is 4.61 µM [rising, single point].
Regarding `Cc1ccccc1NC(=O)CSc1nnc2ccc(-c3cccnc3)nn12`, the cell number change was -47%. The AC50 under setting [2] was 29.1 µM [falling, single point]. Besides, under setting [1], the AC50 is 18.4 µM [rising, partial curve].
Consider `CC(C)c1csc2nc3n(c(=O)c12)CCCCC3`, for which the cell number change is -47.2%. Also, under setting [2], the AC50 was 29.1 µM [falling, single point]. In addition, the concentration at half-maximal activity (AC50) under setting [1] is 1.64 µM [falling, partial curve].
On to `O=c1[nH]c(/C=C/c2ccccn2)nc2ccccc12`, for which the cell number change was found to be 6.61%. In addition, under setting [1], the AC50 is 29.1 µM [rising, single point].
For the compound `OC(CNCc1ccccc1)c1ccccc1` (configuration not stated), the cell number change is -47.4%. For the same compound, the AC50 under setting [2] was 25.9 µM [falling, single point]. The AC50 under setting [1] was 25.9 µM [falling, partial curve].
Regarding `CC(=O)c1sc(NC(=O)CS(=O)(=O)c2ccccc2)nc1C`, the cell number change is 71%. The half-maximal activity concentration (AC50) under setting [2] is 9.2 µM [rising, partial curve].
In the case of `CSc1ccc(C2c3[nH]c4ccccc4c3CCN2C(=O)c2cc(C)n(C)n2)cc1` (configuration not stated), the cell number change was -20.6%. For the same compound, the AC50 under setting [1] was 11.6 µM [falling, partial curve, poor fit].
With `CCN1C/C(=C/c2ccc(OC)c(O)c2)C(=O)/C(=C/c2ccc(OC)c(O)c2)C1`, the cell number change was 5.95%. Also, under setting [1], the AC50 is 2.06 µM [rising, partial curve].
Consider `CCN1CCN(Cc2ccc(NC(=O)c3ccc(C)c(NC(=O)C(=O)c4c[nH]c5ccccc45)c3)cc2C(F)(F)F)CC1`, for which the cell number change was -26.5% and -15.2%. Under setting [1], the concentration at half-maximal activity (AC50) is 1.46 µM [falling, partial curve].
Turning to `Cc1ccc(C(=O)CSc2nnc(-c3cccs3)n2C)o1`, the half-maximal activity concentration (AC50) under setting [1] was 14.6 µM [rising, single point].
With `COc1ccc(CC(=O)Nc2ccc(/C(C)=N/NC(=O)c3ccc(OC)cc3OC)cc2)cc1`, the cell number change was -21.8%. Also, the concentration at half-maximal activity (AC50) under setting [2] is 0.13 µM [falling, full curve, poor fit].
In the case of `CCOC(=O)CCSc1nc(C)cc(C(F)(F)F)c1C#N`, the cell number change was -1.49%. Also, under setting [1], the AC50 was 0.0058 µM [falling, full curve, poor fit].
As for `CC(=O)Nc1ccc(C(=O)N/C(=C/c2ccccc2)C(=O)N2CCCCC2)cc1`, the cell number change amounted to 2.56%.
Take `Cn1c(C(=O)NCC2CCCO2)cc2oc3ccccc3c21` (configuration not stated): the half-maximal activity concentration (AC50) under setting [1] was 1.16 µM [falling, partial curve].
`Cc1ccc(CSCCNS(C)(=O)=O)cc1`: the cell number change was 0.336%.
Take `CCOc1cc(/C=C/c2ccc3cccc([N+](=O)[O-])c3n2)ccc1O`: the cell number change came out at 5.49%. Besides, the half-maximal activity concentration (AC50) under setting [2] was 0.461 µM [falling, partial curve, poor fit]. The AC50 under setting [1] is 25.9 µM [rising, single point].
As for `CCc1cc2c(=O)n3c(nc2s1)-c1[nH]c2ccc(OC)cc2c1CC3`, the cell number change is -7.45%. In addition, under setting [1], the AC50 is 18.4 µM [rising, single point].
In the case of `COc1ccccc1OCCN1C(=O)S/C(=C\c2ccco2)C1=O`, the cell number change was -10.7%.
For the compound `COCCn1c(-c2ccc(F)cc2)nc2cccnc21`, the cell number change came out at 9.93%. Moreover, the AC50 under setting [2] was 1.64 µM [rising, partial curve]. Besides, the AC50 under setting [1] was 0.103 µM [rising, full curve, poor fit].
For the compound `CCOc1ccc(N(C(=O)c2snc(C(N)=O)c2N)C(C(=O)NCC2CCCO2)c2ccco2)cc1` (configuration not stated), the cell number change amounted to 29.4%. Further, under setting [1], the AC50 is 0.13 µM [rising, full curve, poor fit].
`CN(C)c1ccc(C(C(=O)NCC2CCCO2)N(Cc2ccccc2)C(=O)c2snc(C(N)=O)c2N)cc1` (configuration not stated): the cell number change came to 1.28%. Besides, the AC50 under setting [2] is 2.59 µM [rising, partial curve].
Consider `CCCn1c(=O)c2ccccc2n2c(SCCOc3ccccc3F)nnc12`, for which the AC50 was 2.31 µM [rising, partial curve] under setting [2] and 2.91 µM [rising, partial curve] under setting [1].
In the case of `Cc1ccccc1NC(=O)Cc1nnc(SCC(=O)NC2CCCCC2)n1C`, the AC50 under setting [1] is 6.51 µM [falling, single point].
Consider `O=c1c2c(nc3cc(-c4cccc(Cl)c4)[nH]n13)CCCC2`, for which the cell number change was -42.4%. Further, the half-maximal activity concentration (AC50) under setting [2] was 14.6 µM [falling, partial curve]. The half-maximal activity concentration (AC50) under setting [1] was 18.4 µM [falling, partial curve].
Regarding `Cn1c(N2CCCC2)nc2c1c(=O)n(Cc1cccc(F)c1)c(=O)n2C`, the cell number change is -8.77%. In addition, the concentration at half-maximal activity (AC50) under setting [1] was 1.03 µM [rising, single point].
Consider `CC(=O)NC(O)C(=O)c1ccco1` (configuration not stated), for which the cell number change was -15.9%. Under setting [2], the AC50 is 6.51 µM [rising, single point].
For `COc1cc2nc(CC(C)C)n(NC(=O)c3ccccc3)c(=O)c2cc1OC`, the cell number change was found to be 13%. Also, the half-maximal activity concentration (AC50) under setting [1] is 3.66 µM [rising, single point].
In the case of `O=C(NCCCCCNC(=O)c1ccccn1)c1ccccn1`, the cell number change turned out to be 20%. Moreover, the concentration at half-maximal activity (AC50) under setting [1] was 1.64 µM [rising, full curve, poor fit].
Consider `CCN(CC)S(=O)(=O)c1ccc(N2CC(C(=O)NCc3cccnc3)CC2=O)cc1` (configuration not stated), for which the cell number change was -0.42%.
For the compound `CCn1c(C)nc2cc(C(=O)N=Nc3c(O)[nH]c4ccccc34)ccc21`, the cell number change turned out to be 500%. In addition, the half-maximal activity concentration (AC50) under setting [1] was 4.11 µM [rising, partial curve].
For `O=S(=O)(CCN1CCN(C(c2ccccc2)c2ccccc2)CC1)C(F)(F)F`, the cell number change was -11%.
With `CCC(=O)N1CCN(c2ccc(NC(=O)COc3ccc(CC)cc3)cc2)CC1`, the cell number change is 33.9%. The AC50 under setting [2] is 32.6 µM [rising, single point].
In the case of `CN(C)S(=O)(=O)c1ccc(N2CCCC2)c(C(=O)Nc2nc(-c3ccc(F)c(F)c3)cs2)c1`, the cell number change was 32.3%. Further, under setting [2], the AC50 is 2.91 µM [rising, full curve, poor fit]. For the same compound, under setting [1], the half-maximal activity concentration (AC50) was 2.59 µM [rising, full curve].
In the case of `O=C(Cn1ncc2c(=O)oc3ccccc3c21)N1CCCc2ccccc21`, the cell number change is -15%. The AC50 under setting [1] was 10.3 µM [rising, partial curve].
Consider `O=C(NCc1ccco1)c1cccc(NS(=O)(=O)c2cccc(F)c2)c1`, for which the cell number change is -1.57%.
With `O=C(Nc1ccccc1)c1cc2ccccc2c(=O)s1`, the cell number change is -0.437%. The concentration at half-maximal activity (AC50) under setting [1] was 0.116 µM [falling, full curve, poor fit].
`CCCN1CCC(NC(=O)Cc2ccccc2OC)CC1`: the cell number change was 6.61%. Moreover, under setting [1], the AC50 is 6.51 µM [rising, partial curve, poor fit].
Turning to `CCN(CC)S(=O)(=O)c1cccc(-c2nnc(SCCOc3ccccc3)o2)c1`, the AC50 under setting [1] was 29.1 µM [falling, single point].
As for `O=C(CSc1nccn1-c1ccccc1)Nc1ccc2c(c1)OCO2`, the cell number change was found to be 37.5%. For the same compound, the AC50 under setting [2] is 1.84 µM [rising, partial curve, poor fit].
Consider `CC(OC(=O)c1ccc([N+](=O)[O-])o1)C(=O)NC1CCCCC1C` (configuration not stated), for which the cell number change is -11%. Also, the half-maximal activity concentration (AC50) under setting [1] is 0.103 µM [falling, full curve, poor fit].
Consider `COc1cc2c(cc1OC)C1O[C@](CCCCN3C(=O)c4ccccc4C3=O)(C2)Oc2cc(C)n(Cc3ccccc3)c(=O)c21`, for which the cell number change was -29%. The concentration at half-maximal activity (AC50) under setting [1] was 6.68 µM [falling, single point].
As to `COc1ccccc1OCCCCn1c(C(C)O)nc2ccccc21` (configuration not stated), the cell number change is -12.4%.
With `COc1ccccc1C(C)NS(=O)(=O)c1cccs1` (configuration not stated), the cell number change is 4.03%. In addition, the concentration at half-maximal activity (AC50) under setting [1] is 0.0058 µM [falling, full curve, poor fit].
Consider `Cc1ccc(CSC(Nc2ccc(F)cc2)=C(C#N)C#N)cc1`, for which the cell number change is -34%. For the same compound, the AC50 under setting [2] is 6.51 µM [falling, full curve, poor fit]. Under setting [1], the half-maximal activity concentration (AC50) is 23.1 µM [falling, partial curve].
